In PMC2774295:
No constants are given. Whether binding was seen depends on the method and setting. Binding seen in cells or lysates may run through a third protein. Some results given as binding are weak or reduced against the parent protein; the word gives no strength.

By UniProt entry, the sequences of proteins in these tests, tags left out.
UniProt P25054: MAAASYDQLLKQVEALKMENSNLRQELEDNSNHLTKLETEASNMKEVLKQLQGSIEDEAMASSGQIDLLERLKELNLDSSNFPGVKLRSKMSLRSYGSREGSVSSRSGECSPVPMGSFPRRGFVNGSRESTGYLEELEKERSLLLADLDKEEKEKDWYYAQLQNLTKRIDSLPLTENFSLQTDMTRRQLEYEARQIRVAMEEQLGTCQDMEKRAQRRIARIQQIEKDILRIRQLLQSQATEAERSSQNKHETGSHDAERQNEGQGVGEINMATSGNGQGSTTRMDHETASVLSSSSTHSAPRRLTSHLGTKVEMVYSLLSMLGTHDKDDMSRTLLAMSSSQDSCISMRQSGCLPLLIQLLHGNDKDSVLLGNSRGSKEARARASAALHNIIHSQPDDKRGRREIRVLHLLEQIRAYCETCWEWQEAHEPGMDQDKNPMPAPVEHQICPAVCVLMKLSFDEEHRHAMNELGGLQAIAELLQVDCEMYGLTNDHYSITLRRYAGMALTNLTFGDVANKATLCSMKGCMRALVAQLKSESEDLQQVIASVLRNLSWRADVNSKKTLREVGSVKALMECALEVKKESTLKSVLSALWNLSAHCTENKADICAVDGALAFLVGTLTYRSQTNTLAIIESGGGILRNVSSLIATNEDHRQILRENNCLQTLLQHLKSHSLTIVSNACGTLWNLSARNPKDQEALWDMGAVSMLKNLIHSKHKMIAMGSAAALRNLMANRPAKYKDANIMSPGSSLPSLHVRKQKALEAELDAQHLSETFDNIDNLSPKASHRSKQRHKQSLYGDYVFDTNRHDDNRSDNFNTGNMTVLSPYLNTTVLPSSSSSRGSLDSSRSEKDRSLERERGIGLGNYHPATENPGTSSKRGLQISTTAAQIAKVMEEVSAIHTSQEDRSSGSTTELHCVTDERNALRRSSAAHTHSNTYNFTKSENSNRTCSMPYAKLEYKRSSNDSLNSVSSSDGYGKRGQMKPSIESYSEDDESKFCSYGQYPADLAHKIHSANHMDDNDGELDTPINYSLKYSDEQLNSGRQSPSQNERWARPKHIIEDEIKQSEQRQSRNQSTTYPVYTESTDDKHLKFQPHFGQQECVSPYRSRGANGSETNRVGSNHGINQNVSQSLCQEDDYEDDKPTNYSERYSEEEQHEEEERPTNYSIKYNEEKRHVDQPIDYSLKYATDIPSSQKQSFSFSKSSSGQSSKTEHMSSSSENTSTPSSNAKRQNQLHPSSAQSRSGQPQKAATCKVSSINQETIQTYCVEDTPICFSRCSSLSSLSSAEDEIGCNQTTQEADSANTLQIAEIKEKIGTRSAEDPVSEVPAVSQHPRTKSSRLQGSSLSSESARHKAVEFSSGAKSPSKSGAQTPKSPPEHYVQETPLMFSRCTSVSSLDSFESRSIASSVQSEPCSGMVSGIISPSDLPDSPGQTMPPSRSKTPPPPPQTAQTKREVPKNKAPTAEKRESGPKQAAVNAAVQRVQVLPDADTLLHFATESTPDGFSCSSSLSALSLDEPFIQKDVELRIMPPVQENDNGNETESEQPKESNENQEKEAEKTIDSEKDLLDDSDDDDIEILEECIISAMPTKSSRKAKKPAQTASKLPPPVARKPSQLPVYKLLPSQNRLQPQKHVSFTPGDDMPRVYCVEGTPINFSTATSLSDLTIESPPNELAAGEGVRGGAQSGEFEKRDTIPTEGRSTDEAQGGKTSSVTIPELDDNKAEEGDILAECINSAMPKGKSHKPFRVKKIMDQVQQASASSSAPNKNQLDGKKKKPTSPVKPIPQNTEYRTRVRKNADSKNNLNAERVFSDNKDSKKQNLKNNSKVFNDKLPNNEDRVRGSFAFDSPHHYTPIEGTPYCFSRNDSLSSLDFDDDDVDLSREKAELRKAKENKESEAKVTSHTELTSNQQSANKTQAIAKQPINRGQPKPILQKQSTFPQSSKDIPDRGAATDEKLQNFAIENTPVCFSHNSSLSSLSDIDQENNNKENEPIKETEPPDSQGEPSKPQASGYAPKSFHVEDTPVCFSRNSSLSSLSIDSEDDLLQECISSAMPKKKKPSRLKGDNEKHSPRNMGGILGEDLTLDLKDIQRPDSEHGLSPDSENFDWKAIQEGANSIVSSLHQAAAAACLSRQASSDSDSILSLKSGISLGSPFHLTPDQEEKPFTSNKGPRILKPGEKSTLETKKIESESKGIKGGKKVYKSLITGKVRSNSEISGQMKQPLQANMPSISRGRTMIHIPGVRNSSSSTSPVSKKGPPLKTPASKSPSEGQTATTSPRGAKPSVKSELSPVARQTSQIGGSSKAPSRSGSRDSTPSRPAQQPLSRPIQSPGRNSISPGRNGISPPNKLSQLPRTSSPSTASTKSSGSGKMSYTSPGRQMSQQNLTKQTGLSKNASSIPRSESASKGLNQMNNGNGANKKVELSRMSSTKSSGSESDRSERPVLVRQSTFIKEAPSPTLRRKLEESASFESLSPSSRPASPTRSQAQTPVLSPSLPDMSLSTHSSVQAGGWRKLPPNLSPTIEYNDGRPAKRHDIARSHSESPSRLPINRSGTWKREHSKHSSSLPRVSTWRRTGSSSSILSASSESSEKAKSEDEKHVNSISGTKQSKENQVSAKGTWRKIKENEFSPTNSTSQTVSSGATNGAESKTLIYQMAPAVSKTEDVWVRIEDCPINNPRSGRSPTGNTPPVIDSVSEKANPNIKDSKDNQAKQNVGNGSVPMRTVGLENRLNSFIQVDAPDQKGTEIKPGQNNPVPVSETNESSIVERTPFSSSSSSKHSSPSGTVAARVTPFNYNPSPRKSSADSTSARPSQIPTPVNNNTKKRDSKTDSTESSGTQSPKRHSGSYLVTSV
UniProt P20700: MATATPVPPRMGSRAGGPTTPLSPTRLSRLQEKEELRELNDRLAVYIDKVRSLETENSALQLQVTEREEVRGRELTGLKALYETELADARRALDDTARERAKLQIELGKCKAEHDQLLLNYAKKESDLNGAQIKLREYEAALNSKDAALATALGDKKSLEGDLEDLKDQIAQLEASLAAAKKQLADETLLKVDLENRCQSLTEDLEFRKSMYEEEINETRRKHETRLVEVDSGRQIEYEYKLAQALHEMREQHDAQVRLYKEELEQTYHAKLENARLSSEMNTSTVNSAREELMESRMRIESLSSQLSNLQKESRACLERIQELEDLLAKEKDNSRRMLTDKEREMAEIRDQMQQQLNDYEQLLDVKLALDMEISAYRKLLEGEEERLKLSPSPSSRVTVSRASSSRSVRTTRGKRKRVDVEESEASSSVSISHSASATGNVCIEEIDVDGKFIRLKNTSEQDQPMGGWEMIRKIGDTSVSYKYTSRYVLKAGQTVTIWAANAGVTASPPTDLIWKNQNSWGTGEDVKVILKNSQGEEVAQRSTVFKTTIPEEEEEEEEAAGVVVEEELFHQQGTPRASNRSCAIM

Biological target: Adenomatous Polyposis Coli (APC), endogenous full-length (human (endogenous in HCT116βw)) (UniProt P25054)
Assay: co-IP; endogenous APC precipitated from soluble cell lysate with APC-M2 pAb crosslinked to Protein-A dynabeads, overnight at 4°C; lysis buffer 50 mM Tris pH 7.5, 0.1% NP-40, 100 mM NaCl, 1 mM MgCl2, 5 mM EDTA; partners detected by immunoblot; preimmune sera as control

binding: binds
Substance: Lamin B1 (from UniProt P20700 1-586)
